In article PMC7245964:
No constants are given. Whether binding was seen depends on the method and setting. Binding can be weak; no strength is given.

molecular target: T1, Hansenula polymorpha Cdc13 (Hansenula polymorpha DL-1 (ATCC 26012, Ogataea parapolymorpha DL-1)) (UniProt W1QJ57); test: two-hybrid; Gal4-BD (pGBKT7) and Gal4-AD (pGADT7) fusions cotransformed into S. cerevisiae AH109; HIS3 reporter, growth on SC-Leu-Trp-His; 30°C for four days
T1 sequence: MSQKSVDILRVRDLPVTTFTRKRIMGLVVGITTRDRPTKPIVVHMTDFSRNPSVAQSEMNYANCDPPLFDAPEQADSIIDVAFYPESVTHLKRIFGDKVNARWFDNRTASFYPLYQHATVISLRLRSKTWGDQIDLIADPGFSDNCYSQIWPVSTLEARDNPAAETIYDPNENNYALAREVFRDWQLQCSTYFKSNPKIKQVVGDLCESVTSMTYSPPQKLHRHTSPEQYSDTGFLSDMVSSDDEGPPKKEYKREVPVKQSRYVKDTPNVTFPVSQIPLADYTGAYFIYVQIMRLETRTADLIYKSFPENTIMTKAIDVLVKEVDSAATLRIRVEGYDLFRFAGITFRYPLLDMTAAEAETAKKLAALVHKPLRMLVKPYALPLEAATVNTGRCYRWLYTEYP

binding | Substance
binds | Hansenula polymorpha telomerase reverse transcriptase
no binding | Hansenula polymorpha Est1 fragment, residues 1-591 (domain or fragment)
binds | Hansenula polymorpha Stn1
no binding | Hansenula polymorpha Ten1
